# This is one part of the list.
# B1: Aap brpt (Staphylococcus epidermidis) (protein)
# chain: VDGDPITSTEEIPFDKKREFDPNLAPGTEKVVQKGEPGTKTITTPTTKNPLTGEKVGEGEPTEKITKQPVDEIVHYGGEEIKTGHKDEFDPNAPKGSQTTQPGKPGVKNPDTGEVVTPPVDDVTKYGPVDGDPITSTEEIPFDKKREFDPNLAPGTEKVVQKGEPGTKTITTPTTKNPLTGEKVGEGEPTEKITKQPVDEIVHYGGEEIKPGHKDEFDPNAPKGSQEDVPGKPGVKNPDTGEVVTPPVDDVTKYGPVDGDSITSTEEIPFDKKREFDPNLAPGTEKVVQKGEPGTKTITTPTTKNPLTGEKVGEGEPTEKITKQPVDEIVHYGGEQIPQGHKDEFDPNAPVDSKTEVPGKPGVKNPDTGEVVTPPVDDVTKYGPVDGDSITSTEEIPFDKKREFDPNLAPGTEKVVQKGEPGTKTITTPTTKNPLTGEKVGEGKSTEKVTKQPVDEIVEYGPTK
# Experiments:
# Assay in all cases: glycan array binding signal (z-score within array); higher = stronger binding
# Details in all cases: glycan notation: IUPAC condensed, linker removed
# [1] = molecular target: Gal(a1-3)Gal(b1-3)GlcNAc
# In short: (§1)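 Negative Z-scores can be read as non-binding. The Z-score is calculated within each array and then averaged across arrays of one protein sequence at different concentrations or buffers and across linkers. Arrays, 3228 in all, were curated from the Consortium for Functional Glycomics database and kept only where the protein sequence was available.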
# [2] = molecular target: Gal(a1-3)Gal(b1-3)GlcNAc(b1-2)Man
# In short: as §1
# [3] = molecular target: Gal(a1-3)Gal(b1-3)GlcNAc(b1-2)Man(a1-3)[Gal(a1-3)Gal(b1-3)GlcNAc(b1-2)Man(a1-6)]Man(b1-4)GlcNAc(b1-4)GlcNAc
# In short: as §1
# [4] = molecular target: Gal(a1-3)Gal(b1-3)GlcNAc(b1-3)GalNAc
# In short: as §1
# [5] = molecular target: Gal(a1-3)Gal(b1-3)GlcNAc(b1-6)GalNAc
# In short: as §1
# [6] = molecular target: Gal(a1-3)Gal(b1-3)[Fuc(a1-4)]GlcNAc(b1-2)Man(a1-3)[Gal(a1-3)Gal(b1-3)[Fuc(a1-4)]GlcNAc(b1-2)Man(a1-6)]Man(b1-4)GlcNAc(b1-4)GlcNAc
# In short: as §1
# [7] = molecular target: Gal(a1-3)Gal(b1-4)Glc
# In short: as §1
# [8] = molecular target: Gal(a1-3)Gal(b1-4)GlcNAc
# In short: as §1
# [9] = molecular target: Gal(a1-3)Gal(b1-4)GlcNAc(b1-2)Man
# In short: as §1
# [10] = molecular target: Gal(a1-3)Gal(b1-4)GlcNAc(b1-2)Man(a1-3)[Gal(a1-3)Gal(b1-4)GlcNAc(b1-2)Man(a1-6)]Man(b1-4)GlcNAc(b1-4)GlcNAc
# In short: as §1
# [11] = molecular target: Gal(a1-3)Gal(b1-4)GlcNAc(b1-3)GalNAc
# In short: as §1
# [12] = molecular target: Gal(a1-3)Gal(b1-4)GlcNAc(b1-6)GalNAc
# In short: as §1
# [13] = molecular target: Gal(a1-3)Gal(b1-4)[Fuc(a1-3)]GlcNAc
# In short: as §1
# [14] = molecular target: Gal(a1-3)Gal(b1-4)[Fuc(a1-3)]GlcNAc(b1-2)Man(a1-3)[Gal(a1-3)Gal(b1-4)[Fuc(a1-3)]GlcNAc(b1-2)Man(a1-6)]Man(b1-4)GlcNAc(b1-4)GlcNAc
# In short: as §1
# [15] = molecular target: Gal(a1-3)GalNAc
# In short: as §1
# [16] = molecular target: Gal(a1-3)[Gal(a1-4)]Gal(b1-4)GlcNAc
# In short: as §1
# [17] = molecular target: Gal(a1-4)Gal(b1-3)GlcNAc(b1-2)Man(a1-3)[Gal(a1-4)Gal(b1-3)GlcNAc(b1-2)Man(a1-6)]Man(b1-4)GlcNAc(b1-4)GlcNAc
# In short: as §1
# [18] = molecular target: Gal(a1-4)Gal(b1-4)Glc
# In short: as §1
# [19] = molecular target: Gal(a1-4)Gal(b1-4)GlcNAc
# In short: as §1
# [20] = molecular target: Gal(a1-4)Gal(b1-4)GlcNAc(b1-2)Man(a1-3)[Gal(a1-4)Gal(b1-4)GlcNAc(b1-2)Man(a1-6)]Man(b1-4)GlcNAc(b1-4)GlcNAc
# In short: as §1
# [21] = molecular target: Gal(a1-4)Gal(b1-4)GlcNAc(b1-3)Gal(b1-4)Glc
# In short: as §1
# [22] = molecular target: Gal(a1-4)GlcNAc
# In short: as §1
# [23] = molecular target: Gal(a1-6)Glc
# In short: as §1
# [24] = molecular target: Gal(b1-2)Gal
# In short: as §1
# [25] = molecular target: Gal(b1-3)Gal
# In short: as §1
# [26] = molecular target: Gal(b1-3)Gal(b1-4)GlcNAc
# In short: as §1
# [27] = molecular target: Gal(b1-3)GalNAc
# In short: as §1
# [28] = molecular target: Gal(b1-3)GalNAc(a1-3)[Fuc(a1-2)]Gal(b1-4)Glc
# In short: as §1
# [29] = molecular target: Gal(b1-3)GalNAc(a1-3)[Fuc(a1-2)]Gal(b1-4)GlcNAc
# In short: as §1
# [30] = molecular target: Gal(b1-3)GalNAc(b1-3)Gal
# In short: as §1
# [31] = molecular target: Gal(b1-3)GalNAc(b1-3)Gal(a1-4)Gal(b1-4)Glc
# In short: as §1
# [32] = molecular target: Gal(b1-3)GalNAc(b1-4)Gal(b1-4)Glc
# In short: as §1
# [33] = molecular target: Gal(b1-3)GalNAc(b1-4)[Neu5Ac(a2-3)]Gal(b1-4)Glc
# In short: as §1
# [34] = molecular target: Gal(b1-3)GlcNAc
# In short: as §1
# [35] = molecular target: Gal(b1-3)GlcNAc(a1-3)Gal(b1-4)GlcNAc
# In short: as §1
# [36] = molecular target: Gal(b1-3)GlcNAc(a1-6)Gal(b1-4)GlcNAc
# In short: as §1
# [37] = molecular target: Gal(b1-3)GlcNAc(b1-2)Man
# In short: as §1
# [38] = molecular target: Gal(b1-3)GlcNAc(b1-2)Man(a1-3)[Gal(b1-3)GlcNAc(b1-2)Man(a1-6)]Man(b1-4)GlcNAc(b1-4)GlcNAc
# In short: as §1
binder,measurement,setting,value
B1,glycan array binding signal (z-score),[1],-0.608
same,glycan array binding signal (z-score),[2],-0.752
same,glycan array binding signal (z-score),[3],0.422
same,glycan array binding signal (z-score),[4],-0.777
same,glycan array binding signal (z-score),[5],-1.32
same,glycan array binding signal (z-score),[6],0.664
same,glycan array binding signal (z-score),[7],0.985
same,glycan array binding signal (z-score),[8],-1.84
same,glycan array binding signal (z-score),[9],-0.287
same,glycan array binding signal (z-score),[10],-0.042
same,glycan array binding signal (z-score),[11],-1.4
same,glycan array binding signal (z-score),[12],-0.468
same,glycan array binding signal (z-score),[13],-0.268
same,glycan array binding signal (z-score),[14],0.481
same,glycan array binding signal (z-score),[15],-1.05
same,glycan array binding signal (z-score),[16],0.93
same,glycan array binding signal (z-score),[17],-0.999
same,glycan array binding signal (z-score),[18],2
same,glycan array binding signal (z-score),[19],0.088
same,glycan array binding signal (z-score),[20],1.48
same,glycan array binding signal (z-score),[21],1.87
same,glycan array binding signal (z-score),[22],-1.41
same,glycan array binding signal (z-score),[23],1.01
same,glycan array binding signal (z-score),[24],-0.255
same,glycan array binding signal (z-score),[25],0.907
same,glycan array binding signal (z-score),[26],-0.085
same,glycan array binding signal (z-score),[27],-0.003
same,glycan array binding signal (z-score),[28],-0.33
same,glycan array binding signal (z-score),[29],-1.46
same,glycan array binding signal (z-score),[30],-0.934
same,glycan array binding signal (z-score),[31],-0.558
same,glycan array binding signal (z-score),[32],-0.993
same,glycan array binding signal (z-score),[33],-1.29
same,glycan array binding signal (z-score),[34],-0.042
same,glycan array binding signal (z-score),[35],-0.076
same,glycan array binding signal (z-score),[36],0.632
same,glycan array binding signal (z-score),[37],0.168
same,glycan array binding signal (z-score),[38],1.51

# Two entries from above, reformatted.
binder | measurement | setting | value
B1 | glycan array binding signal (z-score) | [3] | 0.422
same | glycan array binding signal (z-score) | [17] | -0.999

# Source: the supplement of paper PMC8728848
